Compound in this experiment: CC1Cc2ccccc2N1C(=O)C1CCCN(C1)C(=O)CCl (mixture of isomers) [TRIM25 ligand 11 (diastereomer mixture)]
Description: probe-labelled cysteine peptide fold change vs DMSO (competition) (log2 fold change); higher = less target engagement (more negative = stronger competition). The settings on record: THP-1, incubation time: 4 h.

Chains of the proteins cited; added tags and fusions are not shown. Lines headed by an entry give the natural chain unless they say otherwise; changes in a name come on top.
UniProt Q9H270: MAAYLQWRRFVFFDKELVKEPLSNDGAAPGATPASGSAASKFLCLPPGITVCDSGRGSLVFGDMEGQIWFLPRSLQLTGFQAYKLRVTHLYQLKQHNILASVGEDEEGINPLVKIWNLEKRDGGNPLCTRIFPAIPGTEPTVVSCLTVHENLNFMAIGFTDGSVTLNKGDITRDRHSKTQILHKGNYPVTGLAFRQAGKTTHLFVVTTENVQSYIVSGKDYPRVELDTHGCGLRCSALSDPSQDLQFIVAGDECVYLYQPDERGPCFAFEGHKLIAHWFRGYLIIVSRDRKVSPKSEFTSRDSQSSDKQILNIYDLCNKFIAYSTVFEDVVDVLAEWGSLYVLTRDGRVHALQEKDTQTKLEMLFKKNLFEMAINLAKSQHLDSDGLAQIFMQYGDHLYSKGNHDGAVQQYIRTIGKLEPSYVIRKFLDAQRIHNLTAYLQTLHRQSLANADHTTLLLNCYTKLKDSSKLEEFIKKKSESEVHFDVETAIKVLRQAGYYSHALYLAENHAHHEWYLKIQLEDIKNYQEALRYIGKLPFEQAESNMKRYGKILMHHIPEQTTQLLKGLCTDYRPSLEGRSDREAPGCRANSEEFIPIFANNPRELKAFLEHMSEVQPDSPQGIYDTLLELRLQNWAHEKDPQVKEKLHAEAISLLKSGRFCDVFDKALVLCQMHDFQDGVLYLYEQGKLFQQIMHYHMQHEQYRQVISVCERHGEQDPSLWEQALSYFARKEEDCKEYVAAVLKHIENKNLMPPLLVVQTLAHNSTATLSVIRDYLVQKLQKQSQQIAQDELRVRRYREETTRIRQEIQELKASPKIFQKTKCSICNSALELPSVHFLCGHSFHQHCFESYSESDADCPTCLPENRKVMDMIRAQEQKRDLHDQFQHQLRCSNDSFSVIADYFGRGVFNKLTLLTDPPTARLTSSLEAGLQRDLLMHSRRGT
UniProt Q9BRU9: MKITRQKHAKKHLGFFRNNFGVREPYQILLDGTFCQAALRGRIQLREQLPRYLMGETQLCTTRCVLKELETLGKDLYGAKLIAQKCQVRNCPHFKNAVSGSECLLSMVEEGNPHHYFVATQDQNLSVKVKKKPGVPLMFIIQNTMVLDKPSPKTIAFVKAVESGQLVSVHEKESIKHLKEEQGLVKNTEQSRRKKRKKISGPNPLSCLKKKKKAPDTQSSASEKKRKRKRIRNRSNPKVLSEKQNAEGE
UniProt Q96JH7: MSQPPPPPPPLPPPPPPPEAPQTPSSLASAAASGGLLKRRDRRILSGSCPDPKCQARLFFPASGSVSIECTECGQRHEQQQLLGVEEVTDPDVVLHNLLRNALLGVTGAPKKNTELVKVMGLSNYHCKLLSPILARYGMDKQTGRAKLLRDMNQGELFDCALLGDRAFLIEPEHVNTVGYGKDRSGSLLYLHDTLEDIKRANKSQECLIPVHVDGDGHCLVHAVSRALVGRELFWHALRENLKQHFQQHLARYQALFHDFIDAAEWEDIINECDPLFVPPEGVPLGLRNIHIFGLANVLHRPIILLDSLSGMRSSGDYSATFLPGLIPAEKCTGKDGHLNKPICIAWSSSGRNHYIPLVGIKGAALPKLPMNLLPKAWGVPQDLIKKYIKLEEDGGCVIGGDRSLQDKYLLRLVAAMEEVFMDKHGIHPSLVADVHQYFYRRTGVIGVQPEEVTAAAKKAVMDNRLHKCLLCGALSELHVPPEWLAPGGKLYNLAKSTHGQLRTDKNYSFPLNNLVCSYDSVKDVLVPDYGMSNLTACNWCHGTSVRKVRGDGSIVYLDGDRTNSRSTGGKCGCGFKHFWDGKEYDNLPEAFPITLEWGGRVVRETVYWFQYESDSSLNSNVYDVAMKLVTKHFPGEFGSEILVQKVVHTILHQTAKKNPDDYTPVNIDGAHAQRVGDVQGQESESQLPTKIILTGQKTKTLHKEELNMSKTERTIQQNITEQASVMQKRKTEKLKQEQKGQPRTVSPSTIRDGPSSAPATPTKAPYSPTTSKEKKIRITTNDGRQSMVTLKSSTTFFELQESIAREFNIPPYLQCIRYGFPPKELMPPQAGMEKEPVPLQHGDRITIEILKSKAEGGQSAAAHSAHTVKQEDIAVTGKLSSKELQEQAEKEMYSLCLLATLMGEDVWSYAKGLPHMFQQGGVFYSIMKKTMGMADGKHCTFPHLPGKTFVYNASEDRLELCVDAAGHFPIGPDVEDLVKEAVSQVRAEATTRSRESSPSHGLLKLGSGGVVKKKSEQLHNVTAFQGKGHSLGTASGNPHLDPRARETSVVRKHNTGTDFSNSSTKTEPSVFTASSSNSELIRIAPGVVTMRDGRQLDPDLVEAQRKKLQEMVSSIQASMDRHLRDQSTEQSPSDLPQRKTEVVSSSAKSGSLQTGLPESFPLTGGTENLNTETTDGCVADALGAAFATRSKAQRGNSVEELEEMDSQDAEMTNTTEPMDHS
UniProt Q9H269: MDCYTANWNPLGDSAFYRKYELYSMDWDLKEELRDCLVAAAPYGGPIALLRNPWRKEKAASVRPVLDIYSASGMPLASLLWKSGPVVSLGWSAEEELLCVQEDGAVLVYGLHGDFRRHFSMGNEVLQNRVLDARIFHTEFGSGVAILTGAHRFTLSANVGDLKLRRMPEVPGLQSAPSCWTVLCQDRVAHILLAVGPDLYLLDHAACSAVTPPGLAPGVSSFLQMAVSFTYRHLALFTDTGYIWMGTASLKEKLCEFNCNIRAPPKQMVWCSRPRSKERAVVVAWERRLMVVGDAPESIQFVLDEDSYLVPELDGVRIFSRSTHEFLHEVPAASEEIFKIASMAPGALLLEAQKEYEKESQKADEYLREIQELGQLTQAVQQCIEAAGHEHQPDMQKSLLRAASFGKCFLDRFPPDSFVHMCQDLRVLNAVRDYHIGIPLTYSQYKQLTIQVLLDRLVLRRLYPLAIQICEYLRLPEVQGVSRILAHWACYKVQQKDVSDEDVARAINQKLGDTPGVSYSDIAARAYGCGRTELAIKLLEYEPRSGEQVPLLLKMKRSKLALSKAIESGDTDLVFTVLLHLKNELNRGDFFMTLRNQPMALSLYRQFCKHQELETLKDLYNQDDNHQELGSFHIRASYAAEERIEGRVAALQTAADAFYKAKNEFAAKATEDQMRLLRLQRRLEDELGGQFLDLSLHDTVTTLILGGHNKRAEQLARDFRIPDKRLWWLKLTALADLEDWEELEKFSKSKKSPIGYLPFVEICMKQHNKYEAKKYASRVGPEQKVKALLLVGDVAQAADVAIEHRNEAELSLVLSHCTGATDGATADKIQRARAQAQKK
UniProt Q8IV63: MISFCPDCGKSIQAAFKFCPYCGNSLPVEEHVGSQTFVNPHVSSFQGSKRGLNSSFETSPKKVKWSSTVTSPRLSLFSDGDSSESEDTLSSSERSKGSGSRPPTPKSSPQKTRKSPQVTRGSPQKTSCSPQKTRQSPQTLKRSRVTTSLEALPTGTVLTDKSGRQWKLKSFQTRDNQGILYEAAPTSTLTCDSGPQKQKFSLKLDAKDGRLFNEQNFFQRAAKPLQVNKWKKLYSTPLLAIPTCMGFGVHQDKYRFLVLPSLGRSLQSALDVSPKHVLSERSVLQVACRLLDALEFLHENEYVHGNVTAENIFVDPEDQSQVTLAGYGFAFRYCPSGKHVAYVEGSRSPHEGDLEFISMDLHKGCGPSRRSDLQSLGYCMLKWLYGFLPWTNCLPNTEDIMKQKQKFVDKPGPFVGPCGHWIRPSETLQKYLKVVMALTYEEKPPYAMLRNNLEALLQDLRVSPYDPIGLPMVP
UniProt Q7Z5K2: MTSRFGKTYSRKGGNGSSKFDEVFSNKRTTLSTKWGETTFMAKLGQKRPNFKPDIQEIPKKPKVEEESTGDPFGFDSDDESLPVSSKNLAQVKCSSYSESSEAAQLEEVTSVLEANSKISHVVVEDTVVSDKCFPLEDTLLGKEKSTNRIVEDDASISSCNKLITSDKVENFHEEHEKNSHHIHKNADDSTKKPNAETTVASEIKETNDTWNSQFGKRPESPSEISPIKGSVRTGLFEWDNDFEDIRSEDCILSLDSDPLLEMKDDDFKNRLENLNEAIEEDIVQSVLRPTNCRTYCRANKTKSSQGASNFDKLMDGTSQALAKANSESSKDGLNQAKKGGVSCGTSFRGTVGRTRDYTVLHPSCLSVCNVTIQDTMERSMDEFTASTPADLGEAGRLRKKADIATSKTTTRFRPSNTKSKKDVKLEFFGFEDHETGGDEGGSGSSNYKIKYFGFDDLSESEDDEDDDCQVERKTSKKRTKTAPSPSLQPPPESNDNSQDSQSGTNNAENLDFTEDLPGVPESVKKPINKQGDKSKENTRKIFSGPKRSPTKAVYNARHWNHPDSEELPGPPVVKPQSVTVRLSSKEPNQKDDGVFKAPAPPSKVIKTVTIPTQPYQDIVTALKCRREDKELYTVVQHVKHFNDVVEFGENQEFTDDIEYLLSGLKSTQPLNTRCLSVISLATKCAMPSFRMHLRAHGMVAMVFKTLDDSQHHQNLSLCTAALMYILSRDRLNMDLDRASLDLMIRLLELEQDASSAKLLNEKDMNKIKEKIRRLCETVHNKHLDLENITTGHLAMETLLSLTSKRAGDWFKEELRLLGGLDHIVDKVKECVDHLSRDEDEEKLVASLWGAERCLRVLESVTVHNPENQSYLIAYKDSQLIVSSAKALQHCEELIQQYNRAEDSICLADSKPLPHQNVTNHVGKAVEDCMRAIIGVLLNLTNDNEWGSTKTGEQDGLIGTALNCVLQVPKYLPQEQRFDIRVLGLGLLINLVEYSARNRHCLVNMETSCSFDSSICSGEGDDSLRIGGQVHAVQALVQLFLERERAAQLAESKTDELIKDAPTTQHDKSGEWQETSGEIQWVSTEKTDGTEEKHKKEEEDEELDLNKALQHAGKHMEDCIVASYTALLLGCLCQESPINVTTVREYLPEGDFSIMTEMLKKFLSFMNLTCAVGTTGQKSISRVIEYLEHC
UniProt P26640: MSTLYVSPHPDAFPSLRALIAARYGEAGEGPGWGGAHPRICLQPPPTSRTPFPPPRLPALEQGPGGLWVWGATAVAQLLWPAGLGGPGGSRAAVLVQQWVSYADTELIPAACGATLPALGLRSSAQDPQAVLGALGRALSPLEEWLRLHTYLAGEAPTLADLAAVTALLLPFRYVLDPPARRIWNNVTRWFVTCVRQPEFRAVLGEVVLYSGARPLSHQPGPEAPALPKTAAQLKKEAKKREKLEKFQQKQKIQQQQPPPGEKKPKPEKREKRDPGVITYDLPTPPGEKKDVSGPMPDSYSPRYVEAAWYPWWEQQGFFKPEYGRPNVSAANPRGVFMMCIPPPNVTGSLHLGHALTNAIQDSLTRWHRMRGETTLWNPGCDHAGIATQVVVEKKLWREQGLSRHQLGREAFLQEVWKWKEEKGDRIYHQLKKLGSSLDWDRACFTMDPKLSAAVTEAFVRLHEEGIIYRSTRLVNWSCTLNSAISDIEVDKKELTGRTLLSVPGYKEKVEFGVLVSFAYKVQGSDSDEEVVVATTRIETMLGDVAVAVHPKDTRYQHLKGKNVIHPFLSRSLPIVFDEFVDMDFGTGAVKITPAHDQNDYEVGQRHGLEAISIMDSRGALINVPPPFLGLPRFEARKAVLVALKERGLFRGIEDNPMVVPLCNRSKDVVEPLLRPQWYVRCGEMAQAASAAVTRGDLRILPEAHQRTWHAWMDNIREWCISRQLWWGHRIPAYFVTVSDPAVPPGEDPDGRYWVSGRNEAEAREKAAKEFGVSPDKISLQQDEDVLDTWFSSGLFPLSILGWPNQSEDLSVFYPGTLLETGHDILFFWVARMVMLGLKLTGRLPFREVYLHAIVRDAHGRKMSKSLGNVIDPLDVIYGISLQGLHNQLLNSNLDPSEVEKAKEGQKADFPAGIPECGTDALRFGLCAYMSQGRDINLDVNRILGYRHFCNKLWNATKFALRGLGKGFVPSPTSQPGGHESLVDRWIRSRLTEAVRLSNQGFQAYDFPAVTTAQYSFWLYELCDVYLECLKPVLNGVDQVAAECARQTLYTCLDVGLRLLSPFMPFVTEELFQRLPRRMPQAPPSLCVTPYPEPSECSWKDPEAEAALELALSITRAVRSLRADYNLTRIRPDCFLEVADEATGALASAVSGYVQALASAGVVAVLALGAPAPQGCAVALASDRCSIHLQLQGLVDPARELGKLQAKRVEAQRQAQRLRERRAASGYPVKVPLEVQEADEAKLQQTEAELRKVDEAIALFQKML
UniProt P50552: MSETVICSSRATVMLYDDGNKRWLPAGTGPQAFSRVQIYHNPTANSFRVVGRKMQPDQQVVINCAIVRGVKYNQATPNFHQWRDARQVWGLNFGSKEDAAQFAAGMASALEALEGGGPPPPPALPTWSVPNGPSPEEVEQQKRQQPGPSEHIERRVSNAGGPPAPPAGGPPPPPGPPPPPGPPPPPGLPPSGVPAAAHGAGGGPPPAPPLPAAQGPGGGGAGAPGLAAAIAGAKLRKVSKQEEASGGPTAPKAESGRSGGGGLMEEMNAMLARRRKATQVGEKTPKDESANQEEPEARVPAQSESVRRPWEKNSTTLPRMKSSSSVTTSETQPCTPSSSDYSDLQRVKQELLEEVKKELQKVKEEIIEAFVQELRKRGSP

Some of the results follow.
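Note: competitive chemoproteomic profiling in live THP-1 cells with an iodoacetamide desthiobiotin (IA-DTB) probe, comparing probe-labelled peptide intensities in compound-treated cells against DMSO-treated controls.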

As to “VPS11_Q9H270_709_QVISVCER (UniProt Q9H270)”, the “probe-labelled cysteine peptide fold change” value by setting is: (10 µM) 0.271; (50 µM) 0.0559.
In the case of “USP9X_Q93008_540_ILDYSCSQDRDTQK (UniProt Q93008)”, the “probe-labelled cysteine peptide fold change” value runs as follows: (10 µM) 0.0146; (50 µM) -0.0556.
Consider “USP9X_Q93008_471_LAWDFSPEQLDHLFDCFK (UniProt Q93008)”, for which the “probe-labelled cysteine peptide fold change” value (10 µM) came out at 0.345 and the “probe-labelled cysteine peptide fold change” value (50 µM) came to 0.292.
Regarding “UTP23_Q9BRU9_35_EPYQILLDGTFCQAALR (UniProt Q9BRU9)”, the “probe-labelled cysteine peptide fold change” value (10 µM) is -0.223 and the “probe-labelled cysteine peptide fold change” value (50 µM) was found to be 0.152.
As for “VCPIP1_Q96JH7_538_DVLVPDYGMSNLTACNWCHGTSVR (UniProt Q96JH7)”, the “probe-labelled cysteine peptide fold change” value runs as follows: (10 µM) 0.0851; (50 µM) 0.205.
On the same counts, the results for “VPS16_Q9H269_408+422_CFLDRFPPDSFVHMCQDLR (UniProt Q9H269)” are 0.0649 and -0.065.
On to “VRK3_Q8IV63_128_TSCSPQK (UniProt Q8IV63)”, for which the “probe-labelled cysteine peptide fold change” value reads like this: (10 µM) 0.0233; (50 µM) -0.142.
Consider “USP9Y_O00507_148_CIINNTHR (UniProt O00507)”, for which the “probe-labelled cysteine peptide fold change” value stood at 0.0958 (10 µM) and 0.321 (50 µM).
On to “WAPL_Q7Z5K2_1170_FLSFMNLTCAVGTTGQK (UniProt Q7Z5K2)”, for which the “probe-labelled cysteine peptide fold change” value by setting is: (10 µM) -0.064; (50 µM) 0.00311.
For the target “USP9X_Q93008_1061_AICLDHAK (UniProt Q93008)”, the “probe-labelled cysteine peptide fold change” value (10 µM) stood at 0.132 and the “probe-labelled cysteine peptide fold change” value (50 µM) is 0.0679.
Turning to “VARS_P26640_444_ACFTMDPK (UniProt P26640)”, the “probe-labelled cysteine peptide fold change” value (10 µM) was 0.162 and the “probe-labelled cysteine peptide fold change” value (50 µM) is 0.0366.
“VPS29_Q9UBQ0_41_IQHILCTGNLCTK (UniProt Q9UBQ0)”: the “probe-labelled cysteine peptide fold change” value (10 µM) is -0.09 and the “probe-labelled cysteine peptide fold change” value (50 µM) was -0.0263.
Take “VPS11_Q9H270_231_VELDTHGCGLR (UniProt Q9H270)”: the “probe-labelled cysteine peptide fold change” value worked out at 0.0608 (10 µM) and 0.122 (50 µM).
Take “VWA8_A3KMH1_858_APTNVTCILK (UniProt A3KMH1)”: the “probe-labelled cysteine peptide fold change” value came out at 0.165 (10 µM) and 0.211 (50 µM).
“WAPL_Q7Z5K2_1190_VIEYLEHC (UniProt Q7Z5K2)”: the “probe-labelled cysteine peptide fold change” value reads like this: (10 µM) -0.0222; (50 µM) 0.0926.
On to “VASP_P50552_7_SETVICSSR (UniProt P50552)”, for which the “probe-labelled cysteine peptide fold change” value worked out at 0.55 (10 µM) and 0.717 (50 µM).
On the same counts, the results for “USP8_P40818_809_NCYQDDINR (UniProt P40818)” are 0.0364 and -0.0104.
On to “VIRMA_Q69YN4_1559+1560_CCSDFDLHSELER (UniProt Q69YN4)”, for which the “probe-labelled cysteine peptide fold change” value (10 µM) amounted to 0.0464 and the “probe-labelled cysteine peptide fold change” value (50 µM) was -0.117.
As to “VPS16_Q9H269_763_KSPIGYLPFVEICMK (UniProt Q9H269)”, the “probe-labelled cysteine peptide fold change” value is -0.373 (10 µM) and -0.281 (50 µM).
With “VPS4A_Q9UN37_233_QHKPSIIFIDEVDSLCGSR (UniProt Q9UN37)”, the “probe-labelled cysteine peptide fold change” value (10 µM) is -0.0156 and the “probe-labelled cysteine peptide fold change” value (50 µM) was -0.00261.
On the same counts, the results for “VPS13C_Q709C8_2276_GIEHSLIEENCGVVVESIQVTLECGLGHR (UniProt Q709C8)” are -0.283 and -0.278.
As to “UTP6_Q9NYH9_328_CYITFCLER (UniProt Q9NYH9)”, the “probe-labelled cysteine peptide fold change” value (10 µM) is -0.241 and the “probe-labelled cysteine peptide fold change” value (50 µM) was -0.109.
As to “VCP_P55072_69_REAVCIVLSDDTCSDEK (UniProt P55072)”, the “probe-labelled cysteine peptide fold change” value is, setting by setting: (10 µM) -0.0101; (50 µM) -0.185.
With “VCPIP1_Q96JH7_472_CLLCGALSELHVPPEWLAPGGK (UniProt Q96JH7)”, the “probe-labelled cysteine peptide fold change” value reads like this: (10 µM) 0.159; (50 µM) 0.00847.
As to “VPS41_P49754_102_INQISLDESGEHMGVCSEDGK (UniProt P49754)”, the “probe-labelled cysteine peptide fold change” value was 0.173 (10 µM) and -0.00626 (50 µM).
Take “VARS_P26640_663_GIEDNPMVVPLCNR (UniProt P26640)”: the “probe-labelled cysteine peptide fold change” value is -0.0683 (10 µM) and -0.176 (50 µM).
With “VPS8_Q8N3P4_974_AMDHIEELVSLKPCK (UniProt Q8N3P4)”, the “probe-labelled cysteine peptide fold change” value is, setting by setting: (10 µM) 0.113; (50 µM) -0.078.
For the target “UTRN_P46939_2098_HQLDEIICWLTK (UniProt P46939)”, the “probe-labelled cysteine peptide fold change” value was -0.0117 (10 µM) and -0.0749 (50 µM).
Consider “VPS45_Q9NRW7_359_NLLEVSEVEQELACQNDHSSALQNIK (UniProt Q9NRW7)”, for which the “probe-labelled cysteine peptide fold change” value was 0.273 (10 µM) and -0.0913 (50 µM).
On the same counts, the results for “VARS_P26640_479_LVNWSCTLNSAISDIEVDK (UniProt P26640)” are 0.193 and 0.0394.
For the target “USP7_Q93009_925_DLLEECK (UniProt Q93009)”, the “probe-labelled cysteine peptide fold change” value runs as follows: (10 µM) 0.197; (50 µM) 0.157.
For the target “VPS54_Q9P1Q0_653_LMETFILDTEQICGR (UniProt Q9P1Q0)”, the “probe-labelled cysteine peptide fold change” value was 0.0792 (10 µM) and 0.139 (50 µM).
With “USP9Y_O00507_674_DGQLWLCAPQAK (UniProt O00507)”, the “probe-labelled cysteine peptide fold change” value was -0.0313 (10 µM) and -0.0409 (50 µM).
For “USP9X_Q93008_2398_CMVALFSNCPVAYQILQGNGDLK (UniProt Q93008)”, the “probe-labelled cysteine peptide fold change” value runs as follows: (10 µM) 0.0393; (50 µM) 0.12.
On to “VPS29_Q9UBQ0_36+41_IQHILCTGNLCTK (UniProt Q9UBQ0)”, for which the “probe-labelled cysteine peptide fold change” value reads like this: (10 µM) 0.0402; (50 µM) -0.0827.
In the same order, the values of “VPS11_Q9H270_586_SDREAPGCR (UniProt Q9H270)” are -0.252 and -0.0858.
Regarding VAV1_P15498_794_YDFCAR (UniProt P15498), the “probe-labelled cysteine peptide fold change” value is, setting by setting: (10 µM) -0.0415; (50 µM) 0.232.
As to “VPS16_Q9H269_408_CFLDRFPPDSFVHMCQDLR (UniProt Q9H269)”, the “probe-labelled cysteine peptide fold change” value reads like this: (10 µM) 0.0533; (50 µM) 0.0687.
For the target “VAV3_Q9UKW4_187_CPENDIR (UniProt Q9UKW4)”, the “probe-labelled cysteine peptide fold change” value is, setting by setting: (10 µM) 0.0572; (50 µM) -0.0205.
For the target “VPS28_Q9UK41_103_LDCPLAMER (UniProt Q9UK41)”, the “probe-labelled cysteine peptide fold change” value stood at 0.165 (10 µM) and 0.0842 (50 µM).
Take “VCPIP1_Q96JH7_940_HCTFPHLPGK (UniProt Q96JH7)”: the “probe-labelled cysteine peptide fold change” value by setting is: (10 µM) 0.0492; (50 µM) 0.0163.
As for “VTA1_Q9NP79_38_RDPVVAYYCR (UniProt Q9NP79)”, the “probe-labelled cysteine peptide fold change” value (10 µM) was -0.0618 and the “probe-labelled cysteine peptide fold change” value (50 µM) was 0.104.
As to “VASP_P50552_64_MQPDQQVVINCAIVR (UniProt P50552)”, the “probe-labelled cysteine peptide fold change” value runs as follows: (10 µM) -0.027; (50 µM) 0.0109.

The values above are taken from the supplement of paper PMC12067093, “Discovery and optimisation of a covalent ligand for TRIM25 and its application to targeted protein ubiquitination” (Chemical Science, 2025).
